Data reported in US20260216182A1, “PYRIDAZINE NLRP3 INHIBITOR COMPOUND, PHARMACEUTICAL COMPOSITION, AND PREPARATION METHOD THEREFOR AND USE THEREOF” (CHANGCHUN GENESCIENCE PHARMACEUTICAL CO., LTD., priority 2022, published 2026).
The match of structure and compound is tentative.

Amino acid sequences for entries named in this document (tags omitted).
UniProt Q96P20, whole entry: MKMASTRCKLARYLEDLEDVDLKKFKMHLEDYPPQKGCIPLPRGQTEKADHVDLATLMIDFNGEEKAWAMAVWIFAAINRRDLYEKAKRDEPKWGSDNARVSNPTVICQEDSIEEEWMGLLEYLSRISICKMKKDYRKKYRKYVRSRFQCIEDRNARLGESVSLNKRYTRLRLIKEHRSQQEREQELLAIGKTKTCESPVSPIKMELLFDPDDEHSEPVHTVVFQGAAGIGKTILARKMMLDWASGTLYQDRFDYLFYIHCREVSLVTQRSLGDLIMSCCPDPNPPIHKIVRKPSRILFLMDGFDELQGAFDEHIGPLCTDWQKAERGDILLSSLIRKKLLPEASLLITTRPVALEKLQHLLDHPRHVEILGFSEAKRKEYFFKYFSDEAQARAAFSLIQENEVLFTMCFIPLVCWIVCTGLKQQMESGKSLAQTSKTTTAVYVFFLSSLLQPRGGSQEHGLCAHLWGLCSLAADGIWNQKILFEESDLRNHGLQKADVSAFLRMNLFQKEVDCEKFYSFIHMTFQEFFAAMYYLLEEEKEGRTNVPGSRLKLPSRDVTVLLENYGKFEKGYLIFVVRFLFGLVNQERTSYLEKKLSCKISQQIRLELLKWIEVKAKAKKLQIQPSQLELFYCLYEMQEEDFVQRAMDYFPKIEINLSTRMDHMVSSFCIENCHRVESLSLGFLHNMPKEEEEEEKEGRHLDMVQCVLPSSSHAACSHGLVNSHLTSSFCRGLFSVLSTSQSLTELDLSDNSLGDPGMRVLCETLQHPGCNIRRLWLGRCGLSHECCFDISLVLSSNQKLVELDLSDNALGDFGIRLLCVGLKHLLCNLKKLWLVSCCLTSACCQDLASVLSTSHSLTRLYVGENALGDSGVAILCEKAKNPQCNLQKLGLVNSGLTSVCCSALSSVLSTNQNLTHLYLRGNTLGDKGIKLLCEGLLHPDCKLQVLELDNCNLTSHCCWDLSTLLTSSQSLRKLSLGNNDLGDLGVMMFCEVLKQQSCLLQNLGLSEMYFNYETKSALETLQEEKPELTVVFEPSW

Biological target: NLRP3 (Homo sapiens, UniProt Q96P20)
Experiment: IC50 of NLRP3 inhibitors in reducing IL-1β secretion by THP-1 cells (PMA, LPS, nigericin; ELISA)
Settings: compound + nigericin 1 h

IC50: 13 nM
SMILES: CC#Cc1ccc2c(-c3c(C)cc(Cl)cc3O)nnc(NCC(C)(C)O)c2c1
